{
  "sequences": {"note": "By UniProt entry, the sequences of proteins in these tests, tags left out.", "UniProt P34160": "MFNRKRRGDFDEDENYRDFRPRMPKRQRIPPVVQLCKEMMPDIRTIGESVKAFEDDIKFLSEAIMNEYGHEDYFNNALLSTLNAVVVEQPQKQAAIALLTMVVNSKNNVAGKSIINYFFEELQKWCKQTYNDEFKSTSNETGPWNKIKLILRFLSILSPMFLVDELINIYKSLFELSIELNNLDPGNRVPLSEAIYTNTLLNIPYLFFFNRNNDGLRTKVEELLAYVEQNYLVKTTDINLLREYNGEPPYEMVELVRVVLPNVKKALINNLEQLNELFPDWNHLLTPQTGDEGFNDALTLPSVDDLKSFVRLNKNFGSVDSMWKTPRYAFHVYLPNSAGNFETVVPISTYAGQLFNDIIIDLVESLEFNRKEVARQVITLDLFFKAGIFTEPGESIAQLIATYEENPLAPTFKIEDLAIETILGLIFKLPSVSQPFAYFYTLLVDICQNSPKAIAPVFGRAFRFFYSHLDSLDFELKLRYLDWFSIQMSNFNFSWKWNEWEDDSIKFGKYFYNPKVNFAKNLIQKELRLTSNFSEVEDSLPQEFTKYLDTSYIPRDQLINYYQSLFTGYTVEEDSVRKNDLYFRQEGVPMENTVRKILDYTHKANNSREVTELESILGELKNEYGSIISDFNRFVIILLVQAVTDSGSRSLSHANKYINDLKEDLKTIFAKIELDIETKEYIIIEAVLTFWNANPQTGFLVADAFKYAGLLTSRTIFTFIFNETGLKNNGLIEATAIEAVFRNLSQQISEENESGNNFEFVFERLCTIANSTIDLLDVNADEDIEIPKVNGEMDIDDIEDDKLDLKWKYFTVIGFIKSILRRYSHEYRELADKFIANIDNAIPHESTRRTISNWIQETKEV"},
  "source": "paper PMC12251259",
  "binders": {"B1": {"name": "Dis3 (protein, UniProt Q08162 1-1001)", "chain": "MSVPAIAPRRKRLADGLSVTQKVFVRSRNGGATKIVREHYLRSDIPCLSRSCTKCPQIVVPDAQNELPKFILSDSPLELSAPIGKHYVVLDTNVVLQAIDLLENPNCFFDVIVPQIVLDEVRNKSYPVYTRLRTLCRDSDDHKRFIVFHNEFSEHTFVERLPNETINDRNDRAIRKTCQWYSEHLKPYDINVVLVTNDRLNREAATKEVESNIITKSLVQYIELLPNADDIRDSIPQMDSFDKDLERDTFSDFTFPEYYSTARVMGGLKNGVLYQGNIQISEYNFLEGSVSLPRFSKPVLIVGQKNLNRAFNGDQVIVELLPQSEWKAPSSIVLDSEHFDVNDNPDIEAGDDDDNNESSSNTTVISDKQRRLLAKDAMIAQRSKKIQPTAKVVYIQRRSWRQYVGQLAPSSVDPQSSSTQNVFVILMDKCLPKVRIRTRRAAELLDKRIVISIDSWPTTHKYPLGHFVRDLGTIESAQAETEALLLEHDVEYRPFSKKVLECLPAEGHDWKAPTKLDDPEAVSKDPLLTKRKDLRDKLICSIDPPGCVDIDDALHAKKLPNGNWEVGVHIADVTHFVKPGTALDAEGAARGTSVYLVDKRIDMLPMLLGTDLCSLKPYVDRFAFSVIWELDDSANIVNVNFMKSVIRSREAFSYEQAQLRIDDKTQNDELTMGMRALLKLSVKLKQKRLEAGALNLASPEVKVHMDSETSDPNEVEIKKLLATNSLVEEFMLLANISVARKIYDAFPQTAMLRRHAAPPSTNFEILNEMLNTRKNMSISLESSKALADSLDRCVDPEDPYFNTLVRIMSTRCMMAAQYFYSGAYSYPDFRHYGLAVDIYTHFTSPIRRYCDVVAHRQLAGAIGYEPLSLTHRDKNKMDMICRNINRKHRNAQFAGRASIEYYVGQVMRNNESTETGYVIKVFNNGIVVLVPKFGVEGLIRLDNLTEDPNSAAFDEVEYKLTFVPTNSDKPRDVYVFDKVEVQVRSVMDPITSKRKAELLLK"}},
  "target": "Cbp80-proteinA (S. cerevisiae) (UniProt P34160)",
  "experiment": "affinity purification with mass spectrometry; Cbp80-proteinA pulled from cryo-ground yeast extract (WT or hpr1Δ cells) on IgG-conjugated magnetic beads, 30 min at 4°C; 20 mM Hepes pH 7.4, 110 mM KOAc, 75 mM NaCl, 0.1% Tween-20, 0.5% Triton X-100, RNasin; conditions that preserve mRNP integrity; label-free quantitation against a no-tag control, four biological replicates",
  "note": "These are yes or no findings as the source states them, for the method shown. In cells and extracts the contact can be indirect. Here binding means that the protein was enriched with, or labelled near, the bait; the list need not be complete. A no says only that the protein was not detected with the bait.",
  "data": [
    {"binder": "B1", "values": [
      {"measurement": "binding", "result": "no binding"}
    ]}
  ]
}
